Measurements as given in article PMC4583543, “Development and Validation of a Novel Leishmania donovani Screening Cascade for High-Throughput Screening Using a Novel Axenic Assay with High Predictivity of Leishmanicidal Intracellular Activity” (PLoS Neglected Tropical Diseases, 2015).

Columns and labels:
Type in all cases: cell-based
HepG2 cells = experiment: HepG2 assay (mammalian counterscreen, resazurin); conditions: Homo sapiens, reference compound panel, mean (standard deviation), 72 h, read-out: HepG2 (potency, pEC50) (converted)
Text: (§1) Compounds were dispensed into 384-well assay plates by acoustic dispensing (LabCyte ECHO). […] Potencies are reported as pEC50 (-LOG(EC50[M])). All data was processed using IDBS ActivityBase. Raw data was converted into percent inhibition through linear regression by setting the high inhibition control as 100% and the no inhibition control as 0%. For primary single concentration screening in the novel axenic assay we introduced a static control as 0% inhibition (signal at time of assay start), which is explained in more detail in the results section. […] The formula used for signal to background is: […] For compounds with low activity and poor definition of the curve top, B was fixed to 100. For the determination of the reference compound panel potency, all experiments were carried out with a minimum of three independent repeats. The assay conditions are described previously.

[1] = system: eGFP expressing LdBOB amastigote-like cells in PMA differentiated THP-1 cells; experiment: Intramacrophage (intracellular, INMAC) assay; conditions: Leishmania donovani, THP-1, 96 h; reference compound panel; mean (standard deviation), minimum three independent repeats; four day incubation; read-out: Intramacrophage (potency, pEC50) (converted)
Method: Compounds were dispensed into 384-well assay plates by acoustic dispensing (LabCyte ECHO). […] Potencies are reported as pEC50 (-LOG(EC50[M])).
All data was processed using IDBS ActivityBase. […] Potency plates were normalised to DMSO control (0% effect) and 2μM amphotericin B control (100% effect). […] For compounds with low activity and poor definition of the curve top, B was fixed to 100. For the determination of the reference compound panel potency, all experiments were carried out with a minimum of three independent repeats.
The assay conditions are described previously. Briefly PMA differentiated THP-1 cells were infected overnight with eGFP expressing LdBOB amastigote-like cells at a multiplicity of infection of 5. Next, any remaining free amastigote-like cells are removed and compounds are added. The microscopy-based read-out is done after a four day compound incubation.

[2] = system: LdBOB axenic amastigote-like cells; experiment: Novel (cidal) axenic amastigote assay, BacTiter-Glo read-out; conditions: Leishmania donovani; read-out: Novel (axenic assay potency, pEC50) (converted)
Text: as §1, with “Leishmania donovani BOB cells (LdBOB) used in this study are a cloned line from strain MHOM/SD/62/1S-CL2 [13]. Cultures were maintained as described previously. Compounds” for “Compounds”, “Test compounds were pre-dispensed into white 384 well plates (Corning). For library screens one compound per well was tested at the indicated final concentration. […] Plates were then sealed with clear film and relative luminescence was detected using a plate reader (Victor 3) from Perkin Elmer or PHERAstar FS from BMG LABTECH, with 0.5 s detection time per well).” for “The assay conditions are described previously.”

`CN1CCC[C@@H]1CCO[C@](C)(c1ccccc1)c1ccc(Cl)cc1` [Clemastine] showed an EC50 (HepG2 cells) of 21.9 µM, an EC50 [1] of 15.8 µM and an EC50 [2] of over 50.1 µM.
